From the supplement of paper PMC12819154, “High-throughput peptide-centric local stability assay extends protein–ligand identification to membrane proteins, tissues and bacteria” (Nature Structural & Molecular Biology, 2025)
This is one part of the list. Most values lie at the level of the controls, where differences are scatter.

The chains behind the UniProt entries cited, without tags or fusion partners. Where a name states a change or a piece, a line headed by the entry shows the natural chain unless it says otherwise.
UniProt Q3US41: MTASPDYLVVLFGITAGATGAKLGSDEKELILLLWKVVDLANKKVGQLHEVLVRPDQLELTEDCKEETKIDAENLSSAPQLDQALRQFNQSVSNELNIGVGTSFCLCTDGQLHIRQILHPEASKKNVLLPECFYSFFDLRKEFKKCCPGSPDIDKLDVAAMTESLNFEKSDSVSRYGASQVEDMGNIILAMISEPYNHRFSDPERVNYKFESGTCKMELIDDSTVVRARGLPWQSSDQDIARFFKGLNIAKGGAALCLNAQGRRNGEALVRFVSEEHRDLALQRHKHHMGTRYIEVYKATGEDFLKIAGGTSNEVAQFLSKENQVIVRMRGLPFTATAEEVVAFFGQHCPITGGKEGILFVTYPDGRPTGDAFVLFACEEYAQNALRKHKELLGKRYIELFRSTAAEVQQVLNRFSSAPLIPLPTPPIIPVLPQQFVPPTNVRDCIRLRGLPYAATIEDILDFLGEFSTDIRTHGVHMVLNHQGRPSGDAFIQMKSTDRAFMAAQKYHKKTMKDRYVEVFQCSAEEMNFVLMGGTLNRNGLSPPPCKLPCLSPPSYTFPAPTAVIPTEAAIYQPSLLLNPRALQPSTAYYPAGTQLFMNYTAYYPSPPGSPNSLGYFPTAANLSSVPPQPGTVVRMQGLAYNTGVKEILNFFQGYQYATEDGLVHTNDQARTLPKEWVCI
UniProt Q4VA53: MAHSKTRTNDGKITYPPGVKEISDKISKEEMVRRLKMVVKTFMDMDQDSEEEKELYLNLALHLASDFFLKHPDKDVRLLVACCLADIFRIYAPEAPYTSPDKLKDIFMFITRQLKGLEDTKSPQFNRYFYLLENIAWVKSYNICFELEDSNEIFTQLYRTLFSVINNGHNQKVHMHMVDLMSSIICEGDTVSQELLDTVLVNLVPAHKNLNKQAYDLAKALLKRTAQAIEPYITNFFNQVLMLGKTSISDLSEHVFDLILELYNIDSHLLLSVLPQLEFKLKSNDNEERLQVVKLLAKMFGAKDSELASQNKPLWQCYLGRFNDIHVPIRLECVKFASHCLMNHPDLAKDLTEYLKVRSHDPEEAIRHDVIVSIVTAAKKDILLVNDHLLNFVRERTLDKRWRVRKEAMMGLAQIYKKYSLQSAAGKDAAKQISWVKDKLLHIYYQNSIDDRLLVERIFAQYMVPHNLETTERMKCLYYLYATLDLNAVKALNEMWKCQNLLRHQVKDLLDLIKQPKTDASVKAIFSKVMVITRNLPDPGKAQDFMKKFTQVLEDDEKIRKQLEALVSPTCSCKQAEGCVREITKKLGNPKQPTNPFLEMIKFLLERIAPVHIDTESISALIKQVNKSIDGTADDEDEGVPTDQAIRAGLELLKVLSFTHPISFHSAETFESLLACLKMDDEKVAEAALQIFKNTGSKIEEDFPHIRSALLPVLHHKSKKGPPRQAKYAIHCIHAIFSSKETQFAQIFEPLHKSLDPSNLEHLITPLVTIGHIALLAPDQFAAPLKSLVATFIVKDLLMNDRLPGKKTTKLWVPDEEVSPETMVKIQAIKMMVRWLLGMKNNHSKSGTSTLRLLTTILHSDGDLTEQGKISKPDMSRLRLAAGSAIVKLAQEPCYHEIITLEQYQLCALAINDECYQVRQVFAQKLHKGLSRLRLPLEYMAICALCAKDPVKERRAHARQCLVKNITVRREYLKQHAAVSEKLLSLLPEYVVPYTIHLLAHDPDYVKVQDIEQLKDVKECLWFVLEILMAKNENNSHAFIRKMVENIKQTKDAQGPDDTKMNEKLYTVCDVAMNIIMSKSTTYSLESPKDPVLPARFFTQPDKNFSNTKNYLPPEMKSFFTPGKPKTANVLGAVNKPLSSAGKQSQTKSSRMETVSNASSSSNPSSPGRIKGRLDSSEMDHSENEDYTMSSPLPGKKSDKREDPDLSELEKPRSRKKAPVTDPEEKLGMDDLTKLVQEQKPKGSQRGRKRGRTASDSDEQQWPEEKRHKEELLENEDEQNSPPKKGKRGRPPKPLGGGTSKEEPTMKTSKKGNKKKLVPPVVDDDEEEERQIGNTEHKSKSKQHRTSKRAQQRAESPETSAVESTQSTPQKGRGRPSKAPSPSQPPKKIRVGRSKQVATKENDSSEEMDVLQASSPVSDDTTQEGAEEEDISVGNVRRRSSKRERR
UniProt Q3U9F6: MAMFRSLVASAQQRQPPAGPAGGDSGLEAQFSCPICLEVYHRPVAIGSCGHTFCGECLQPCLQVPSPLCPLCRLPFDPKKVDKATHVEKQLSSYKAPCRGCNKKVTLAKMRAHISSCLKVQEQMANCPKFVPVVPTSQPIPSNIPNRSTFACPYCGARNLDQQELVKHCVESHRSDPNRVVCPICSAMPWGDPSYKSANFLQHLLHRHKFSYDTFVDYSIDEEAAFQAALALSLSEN
UniProt Q3U5F4: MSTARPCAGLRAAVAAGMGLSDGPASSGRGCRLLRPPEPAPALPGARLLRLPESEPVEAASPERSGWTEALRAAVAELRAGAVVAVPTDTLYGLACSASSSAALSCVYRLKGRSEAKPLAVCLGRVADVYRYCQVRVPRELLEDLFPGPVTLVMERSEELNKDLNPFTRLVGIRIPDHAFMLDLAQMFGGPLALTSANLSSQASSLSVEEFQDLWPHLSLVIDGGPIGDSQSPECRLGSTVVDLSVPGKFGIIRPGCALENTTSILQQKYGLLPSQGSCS
UniProt Q3UIJ9: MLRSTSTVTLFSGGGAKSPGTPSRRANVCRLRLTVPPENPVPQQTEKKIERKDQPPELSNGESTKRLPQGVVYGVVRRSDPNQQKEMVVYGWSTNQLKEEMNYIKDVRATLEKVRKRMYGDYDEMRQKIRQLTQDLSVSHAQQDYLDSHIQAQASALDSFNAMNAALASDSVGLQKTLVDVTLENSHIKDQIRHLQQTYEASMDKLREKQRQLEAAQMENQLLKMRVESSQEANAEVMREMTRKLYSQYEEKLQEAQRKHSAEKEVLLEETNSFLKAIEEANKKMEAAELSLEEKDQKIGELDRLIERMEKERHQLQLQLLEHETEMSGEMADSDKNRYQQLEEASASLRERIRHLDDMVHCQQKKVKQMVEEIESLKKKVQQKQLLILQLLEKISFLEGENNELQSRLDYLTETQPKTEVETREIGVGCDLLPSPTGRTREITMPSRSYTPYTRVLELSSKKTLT
UniProt Q3ULJ0: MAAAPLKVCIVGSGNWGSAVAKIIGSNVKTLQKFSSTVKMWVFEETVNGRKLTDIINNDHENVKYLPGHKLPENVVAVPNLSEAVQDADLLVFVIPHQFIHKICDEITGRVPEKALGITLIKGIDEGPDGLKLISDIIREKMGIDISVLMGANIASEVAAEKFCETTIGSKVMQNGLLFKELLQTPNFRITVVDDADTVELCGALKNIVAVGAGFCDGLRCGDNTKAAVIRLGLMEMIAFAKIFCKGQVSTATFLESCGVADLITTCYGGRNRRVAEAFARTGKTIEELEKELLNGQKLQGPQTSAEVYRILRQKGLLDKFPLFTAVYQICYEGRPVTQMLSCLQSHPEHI

Each target was assayed with CN[C@@H]1C[C@H]2O[C@@](C)([C@@H]1OC)n1c3ccccc3c3c4c(c5c6ccccc6n2c5c31)C(=O)NC4 [staurosporine] (assay: log2 fold change of tryptic peptide abundance, ligand vs vehicle (limited proteolysis) (log2 ratio); higher = more trypsin-susceptible (destabilized)). Conditions: ligand concentration: 20 uM; sample: mouse liver crude lysate; replicate design: treated separately.

Target | log2 fold change
UniProt Q3US41 (peptide sequence: STAAEVQQVLNR, peptide start residue: 426) | 0.0634
UniProt Q4VA53 (peptide sequence: KAPVTDPEEKLGMDDLTK, peptide start residue: 1217) | 0.493
UniProt Q3U9F6 (peptide sequence: VQEQMANCPK, peptide start residue: 120) | 0.245
UniProt Q3U5F4 (peptide sequence: SGWTEALR, peptide start residue: 65) | -0.101
UniProt Q3UIJ9 (peptide sequence: STSTVTLFSGGGAK, peptide start residue: 4) | -0.212
UniProt Q3ULJ0 (peptide sequence: VMQNGLLFK, peptide start residue: 172) | -0.179
